The values are deposited in ChEMBL (CHEMBL3988442, “University of Dundee, Small-Polar-MMV Screening Library” (2021)).

Sequences of proteins named here, by UniProt entry; tags and fusion partners are left off.
UniProt E9BF75, entry or part of it: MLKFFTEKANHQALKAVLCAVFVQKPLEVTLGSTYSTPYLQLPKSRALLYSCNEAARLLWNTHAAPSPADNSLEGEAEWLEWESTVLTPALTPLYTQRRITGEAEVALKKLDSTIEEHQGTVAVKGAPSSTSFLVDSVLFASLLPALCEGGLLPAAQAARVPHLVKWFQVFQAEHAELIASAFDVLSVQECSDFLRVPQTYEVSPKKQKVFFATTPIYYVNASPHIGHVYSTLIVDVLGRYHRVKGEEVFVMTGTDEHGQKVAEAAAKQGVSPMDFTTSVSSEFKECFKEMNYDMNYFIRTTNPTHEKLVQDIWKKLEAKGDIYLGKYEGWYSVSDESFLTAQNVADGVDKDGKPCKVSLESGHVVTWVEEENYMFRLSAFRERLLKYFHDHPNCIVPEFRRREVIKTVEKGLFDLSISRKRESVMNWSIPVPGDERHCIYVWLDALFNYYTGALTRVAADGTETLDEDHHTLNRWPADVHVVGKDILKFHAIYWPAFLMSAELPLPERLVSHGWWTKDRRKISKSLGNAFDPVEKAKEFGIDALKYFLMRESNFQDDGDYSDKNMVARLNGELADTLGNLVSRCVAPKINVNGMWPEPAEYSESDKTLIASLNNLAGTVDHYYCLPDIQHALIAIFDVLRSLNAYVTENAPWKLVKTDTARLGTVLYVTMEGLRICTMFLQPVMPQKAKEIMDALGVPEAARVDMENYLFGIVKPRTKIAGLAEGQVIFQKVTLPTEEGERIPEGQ

All values are in %.
The controls that fix the scale are not given in the record; negative values are as filed.
The compounds are a random part of those screened.

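Methionyl-tRNA synthetase (putative), Leishmania donovani (UniProt E9BF75). Primary screen of methionyl-tRNA synthetase; the read-out is not stated. The test concentration is not given. The values are filed as inhibition. Size under these conditions: about 68,000 compounds, about 24 of them at 50% or above in at least one test.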

structure	inhibition
Cc1nocc1C(=O)N1CCOC2(COCCN(CC3CC3)C2)C1 (configuration not stated)	14.84
Cc1nc(C)n(CC2CCCN(c3ncnc4c3CCC4)C2)n1 (configuration not stated)	0
CN(Cc1cc[nH]n1)C(=O)c1ccc2c(c1)nc(N1CC[C@H](O)C1)n2C	10.92
CCC(C)c1noc(C2CCN(C(=O)c3cccs3)CC2)n1 (configuration not stated)	11.02
O=C(N1CCOCC1)N1C[C@H]2CC[C@@H]1CN(C1Cc3ccccc3C1)C2	1.423
Cc1ccnc(NC(=O)c2c(C)oc(C)c2C)c1	-0.2786
O=C(CN1CCc2ccccc2C1)NCc1cc2n(n1)CCCNC2	4.91
COc1ncccc1CN1C[C@@H]2C[C@@H](C(=O)NCC3CC3)N(C)[C@@H]2C1	12.5
Cc1cc(C[S+]([O-])Cc2ccccc2F)on1 (configuration not stated)	8.683
CN(C)CC(=O)N1CCc2ncnc(-c3ccsc3)c2CC1	10.03
CC(CC(=O)c1ccco1)NC(=O)c1ccon1 (configuration not stated)	10.36
Cc1cnn(CCNCc2ccccc2OCc2cccnc2)c1	14.58
CN(Cc1noc(C2CC2)n1)C1CCN(Cc2ccncc2)C1 (configuration not stated)	7.975
CCc1ccc(C(N)c2cccc(S(C)(=O)=O)c2)cc1 (configuration not stated)	14.46
Cc1cnc(CNC(=O)NCCOc2ncccc2Cl)s1	8.675
CC(=O)N1CC[C@H](c2nc3cc(C)ccc3o2)C1	3.759
O=C(CN(Cc1ccccc1)CC1CCOCC1)Nc1nccs1	16.5
C1CC(NCc2nnc(C3CC3)o2)CN(Cc2noc(C3CC3)n2)C1 (configuration not stated)	18.78
CC(C)COC1CC2(CCN(C(=O)Cc3ccccn3)CC2)C1	-6.723
O=C(CCc1cc(Cl)no1)N1CCCCC1CCN1CCOCC1 (configuration not stated)	10.43
Cc1nc(-c2cccc(C#N)c2)nn1CC1(O)CCCCC1	13.04
CCN(CCn1cccn1)Cc1nc(-c2cccs2)oc1C	15.93
CC(C)(C)CN1CCCC(O)(CN2CCc3[nH]ncc3C2)C1=O (configuration not stated)	12.63
COc1ccc2c(c1)C1(CCN(Cc3cccnc3)CC1)N(C)CC2	2.055
c1ccc(CN2CCNCC(Cc3cnccn3)C2)cc1 (configuration not stated)	10.64
CCOc1cc(CNC(=O)c2cnn(CC)c2C(F)(F)F)ccn1	12.24
COCC1CN(Cc2ccoc2)Cc2cn(C)nc21 (configuration not stated)	-4.38
COc1ccccc1OCc1cc(C(=O)N2CC(O)C2)n[nH]1	18.58
CC(C)(C)NC(=O)c1nn(C2CCS(=O)(=O)C2)c2c1CCCC2 (configuration not stated)	15.3
CCc1nnc2n1CCN(C(=O)c1ccc3c(c1)NC(=O)CO3)C2	1.795
CN(Cc1cn2c(n1)CN(Cc1nccs1)CC2)Cc1ccco1	9.341
CCCNC(=O)C1(CC2CC(c3ccccc3OC)=NO2)CCOCC1 (configuration not stated)	15.43
CC1CN(Cc2ccccc2)CCCN1CCNS(C)(=O)=O (configuration not stated)	5.966
Cc1nc(C2CCCN(C(=O)c3cc(Cl)c[nH]3)C2)no1 (configuration not stated)	7.042
CCNC(=O)N1C[C@@H]2OCC(=O)N(Cc3cccnc3)[C@@H]2C1	15.93
CCN(CC)S(=O)(=O)NCC1Cc2ccccc2O1 (configuration not stated)	9.218
CCc1noc(CCCC(=O)N2CCCC(c3ccn[nH]3)C2)n1 (configuration not stated)	3.548
CC(=O)N1CCN(C(=O)c2cc(C(C)C)no2)[C@H]2CS(=O)(=O)C[C@H]21	15.76
Cn1nc(Cn2ccnc2)c2c1CN(C(=O)c1ccc[nH]1)C2	18.13
O=C(CCc1cccc(Cl)c1)NS(=O)(=O)Cc1ccon1	3.686
COc1cccc(F)c1C(C)NC(=O)NCc1cnc(C)s1 (configuration not stated)	7.563
COCCC1(CO)CCCN(C(=O)c2cc(=O)[nH]c(=O)[nH]2)C1 (configuration not stated)	6.875
CN1CCN(C(=O)c2cc(C#N)cn2C)c2ccccc2C1	9.025
Cc1noc([C@@H]2C[C@@H]3CCN(CC4CC4)C[C@H]3O2)n1	15.07
CC(=O)Nc1nc(CN2CCCC2Cn2cccn2)cs1 (configuration not stated)	6.628
Cc1nc(CN2C[C@@H]3CN(C(=O)c4ccoc4C)C[C@@H]3C2=O)cs1	9.841
O=C(Cc1csc(-c2ccccc2F)n1)NCc1ccc(C(=O)O)cc1	10.73
Cn1cc(CN2CCCC23CCN(C(=O)c2ccccn2)CC3)cn1	0.6536
Cc1cc(CNCCNS(C)(=O)=O)sc1Br	3.922
CC1CCC2(CC1)NC(=O)c1cc(Br)ccc1-n1nnnc12 (configuration not stated)	10.44
O=c1cc(CN2CCCC2)nc2n1CCCN(Cc1ccco1)C2	10.78
CCC(C)(C)C(=O)N1CCN(C2=NCC(C)S2)CC1 (configuration not stated)	15.03
O=C(CCC(=O)N1CCCC1c1ccsc1)N1CCOCC1 (configuration not stated)	16.15

Once more, the final 4:

{"structure": "CC1CCC2(CC1)NC(=O)c1cc(Br)ccc1-n1nnnc12", "stereo": "configuration not stated", "inhibition": 10.44}
{"structure": "O=c1cc(CN2CCCC2)nc2n1CCCN(Cc1ccco1)C2", "inhibition": 10.78}
{"structure": "CCC(C)(C)C(=O)N1CCN(C2=NCC(C)S2)CC1", "stereo": "configuration not stated", "inhibition": 15.03}
{"structure": "O=C(CCC(=O)N1CCCC1c1ccsc1)N1CCOCC1", "stereo": "configuration not stated", "inhibition": 16.15}